Data published in patent publication US20180066067A1 (Novartis, published 2018).
These are yes or no findings as the source states them, for the method shown. For part of these data: Binding seen in cells or lysates may run through a third protein. Some entries that bind do so weakly or less than the wild type.

Chains of the proteins cited; added tags and fusions are not shown. Lines headed by an entry give the natural chain unless they say otherwise; changes in a name come on top.
UniProt Q9ULT6: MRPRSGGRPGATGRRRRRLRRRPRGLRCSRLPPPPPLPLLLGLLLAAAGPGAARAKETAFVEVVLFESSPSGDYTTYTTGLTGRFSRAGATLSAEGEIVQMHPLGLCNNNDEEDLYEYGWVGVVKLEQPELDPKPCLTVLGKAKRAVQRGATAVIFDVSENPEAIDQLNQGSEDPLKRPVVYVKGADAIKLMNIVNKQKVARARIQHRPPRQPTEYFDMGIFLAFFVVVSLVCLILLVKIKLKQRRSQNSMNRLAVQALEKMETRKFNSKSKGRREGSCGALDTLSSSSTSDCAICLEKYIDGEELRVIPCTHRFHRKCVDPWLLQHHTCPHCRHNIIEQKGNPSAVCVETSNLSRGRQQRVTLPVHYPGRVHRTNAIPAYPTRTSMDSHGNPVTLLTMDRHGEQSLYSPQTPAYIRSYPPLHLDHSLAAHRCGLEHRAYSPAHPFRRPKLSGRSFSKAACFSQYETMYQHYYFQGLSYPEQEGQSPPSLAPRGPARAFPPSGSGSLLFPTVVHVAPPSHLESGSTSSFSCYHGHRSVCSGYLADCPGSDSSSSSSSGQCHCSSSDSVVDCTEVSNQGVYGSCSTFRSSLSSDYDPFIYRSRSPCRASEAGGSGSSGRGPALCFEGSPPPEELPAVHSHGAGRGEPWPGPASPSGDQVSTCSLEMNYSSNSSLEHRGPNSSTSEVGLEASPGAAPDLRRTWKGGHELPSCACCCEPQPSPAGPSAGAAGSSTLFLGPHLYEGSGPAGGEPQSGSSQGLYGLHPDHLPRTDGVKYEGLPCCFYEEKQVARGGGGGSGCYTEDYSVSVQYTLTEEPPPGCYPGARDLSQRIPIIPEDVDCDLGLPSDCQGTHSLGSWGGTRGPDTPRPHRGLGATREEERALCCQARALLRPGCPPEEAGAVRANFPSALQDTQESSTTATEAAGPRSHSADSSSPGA

How the values were obtained:
[1] = target: ZNRF3 ECD-TM (extracellular domain-transmembrane, amino acids 1-256) (human) (UniProt Q9ULT6); assay: cell-based binding assay: RSPO1-GFP conditioned medium on transfected HEK293 cells, immunofluorescence with anti-GFP and anti-Myc
[2] = target: ZNRF3 ECD-TM (extracellular domain-transmembrane, amino acids 1-256) (human) (UniProt Q9ULT6); assay: summary sentence on the cell-based binding assay and FIG. 9
Myc-ZNRF3 ΔRING (human) = Myc-ZNRF3 ΔRING (human) (UniProt Q9ULT6); assay: coimmunoprecipitation with anti-Myc from HEK293 lysates after RSPO1-GFP conditioned medium, anti-GFP blot

Measured: binding

B1: RSPO1-GFP (ligand, UniProt Q2MKA7 21-263, looked up)
chain: SRGIKGKRQRRISAEGSQACAKGCELCSEVNGCLKCSPKLFILLERNDIRQVGVCLPSCPPGYFDARNPDMNKCIKCKIEHCEACFSHNFCTKCKEGLYLHKGRCYPACPEGSSAANGTMECSSPAQCEMSEWSPWGPCSKKQQLCGFRRGSEERTRRVLHAPVGDHAACSDTKETRRCTVRRVPCPEGQKRRKGGQGRRENANRNLARKESKEAGAGSRRRKGQQQQQQQGTVGPLTSAGPA
notes: Used as conditioned medium; The order of the parts follows the printed name; also called R-spondin 1 GFP fusion; R-spondin; not shown: GFP
binds: [1] | [2] | Myc-ZNRF3 ΔRING (human)
